PubChem BioAssay AID1259327 – Drosophila RNAi Screening Center, 2017

Screen: 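Baseline ATP after transmembrane-protein gene knock-down with water vehicle only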
System: Drosophila S2R+ cells
Reagents: long dsRNA against Drosophila genes
Time to read-out: 5 days (water added on day 4, read one day later)
Challenge: water added as vehicle, no metal, one day before read-out
Measurement: 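Total ATP measured by luciferase light, scaled to plate mean, duplicates averaged, then z-scored across plates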
Reading the numbers: ATP z-score: higher = more total ATP than typical wells; ATP luminescence: higher = more total ATP
Rule for the call: 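Called active when the ATP z-score exceeds 1.5 or falls below -1.5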
Calls: active = hit: ATP up or down; inactive = no clear ATP change
The whole screen tested about 3,100 reagents; shown is an unselected part. 378 of them (12%) were called active. 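Hits include both directions; z-score sign shows ATP rise or fall; raw luminescence values are not plate-normalised.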 A plus sign joins genes that one reagent is predicted to hit. The record does not give: the amount of reagent.

no.	Target gene	dsRNA	ATP z-score, duplicate mean	ATP luminescence, replicate 1 (RLU)	ATP luminescence, replicate 2 (RLU)	activity call
1	PGRP-SB1	DRSC11090	0.835	1.01e6	1.00e6	inactive
2	Tsp42Ed	DRSC05940	0.253	6.27e5	6.58e5	inactive
3	Tsp42Ed	DRSC39728	-1.58	3.39e5	3.78e5	active
4	Or67c	DRSC11242	-0.311	9.11e5	8.02e5	inactive
5	Or67c	DRSC39762	-1	3.28e5	4.96e5	inactive
6	ppk3	DRSC04275	1.27	8.78e5	8.45e5	inactive
7	ppk3	DRSC25960	0.191	9.80e5	7.67e5	inactive
8	ItgaPS5	DRSC04501	1.44	8.70e5	8.87e5	inactive
9	ItgaPS5	DRSC28842	0.77	9.85e5	8.52e5	inactive
10	PGRP-SD	DRSC10856	-0.0583	8.93e5	8.84e5	inactive
11	Ugalt	DRSC18467	0.806	7.56e5	7.69e5	inactive
12	PIG-A	DRSC06982	0.332	7.50e5	7.84e5	inactive
13	Cirl	DRSC23235	-0.739	5.21e5	5.13e5	inactive
14	Cirl	DRSC28280	-0.563	7.84e5	7.28e5	inactive
15	Gr28b	DRSC02291	0.791	8.07e5	8.13e5	inactive
16	Gr28b	DRSC02292	0.0824	9.46e5	8.69e5	inactive
17	Gr28b	DRSC29459	-0.523	8.29e5	6.96e5	inactive
18	Trpm	DRSC06629	0.621	7.52e5	8.44e5	inactive
19	Trpm	DRSC27597	-0.0122	1.08e6	1.17e6	inactive
20	Trpm	DRSC29042	-0.0576	8.74e5	7.62e5	inactive
21	Ir56c	DRSC06544	1.4	7.91e5	7.02e5	inactive
22	Ir56c	DRSC26227	0.667	1.04e6	8.25e5	inactive
23	NaPi-III	DRSC10893	-0.707	6.66e5	6.45e5	inactive
24	NaPi-III	DRSC28299	0.372	9.01e5	8.36e5	inactive
25	CG3803	DRSC04420	0.267	7.64e5	7.45e5	inactive
26	CG13887	DRSC08357	-0.573	6.79e5	6.60e5	inactive
27	CG1636 + CG15343	DRSC39902	-2.45	3.42e5	4.12e5	active
28	OXA1L	DRSC09672	-1.52	5.73e5	5.65e5	active
29	OXA1L	DRSC29571	-0.361	8.02e5	7.59e5	inactive
30	Atf-2 + CG44247	DRSC04130	0.3	7.44e5	7.83e5	inactive
31	Atf-2 + CG44247	DRSC04413	-0.65	6.15e5	6.99e5	inactive
32	Drl-2	DRSC06155	-0.244	7.15e5	7.17e5	inactive
33	Drl-2	DRSC06858	-0.573	5.20e5	6.16e5	inactive
34	Drl-2	DRSC36862	-0.596	4.36e5	6.24e5	inactive
35	Drl-2	DRSC36863	-1.46	4.61e5	4.51e5	inactive
36	Ir21a + asRNA:CR43609	DRSC00528	0.352	8.03e5	6.83e5	inactive
37	SsRbeta	DRSC11290	0.468	7.06e5	8.58e5	inactive
38	Picot	DRSC07508	0.387	7.93e5	7.51e5	inactive
39	Picot	DRSC24256	-0.0989	8.14e5	8.62e5	inactive
40	MFS16	DRSC04051	0.937	9.04e5	7.49e5	inactive
41	MFS16	DRSC26536	-0.853	9.46e5	1.16e6	inactive
42	CG17929	DRSC15291	2.43	2.95e5	1.31e6	active
43	CG17929	DRSC39673	1.92	5.74e5	6.18e5	active
44	CG12121	DRSC17816	1.03	8.93e5	7.53e5	inactive
45	CG12121	DRSC39723	0.186	5.14e5	4.40e5	inactive
46	CG4168	DRSC01447	1.71	9.87e5	8.66e5	active
47	CG4168	DRSC01933	-1.25	3.29e5	4.60e5	inactive
48	CG4168	DRSC22789	-0.654	4.89e5	5.60e5	inactive

Part of the list above, limited to “ATP luminescence, replicate 2 (RLU)”.
Gr28b [DRSC02291]: 8.13e5
Gr28b [DRSC02292]: 8.69e5
Gr28b [DRSC29459]: 6.96e5
